Measurements reported in PubChem BioAssay AID1159584 (Peter MacCallum Cancer Centre, 2016).

- Aim: 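Knock-downs that harm CDH1-null cells more than parental MCF10A cells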 (primary screen)
- Cells: human MCF10A breast epithelial cells, parental and CDH1-null
- Reagents: siRNA against human genes
- Read-out: 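Cell viability by CellTiter-Glo ATP luminescence, each line scaled to the mean of mock wells across plates, then CDH1-null over parental ratio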
- Direction: CDH1-null / parental viability ratio: higher = CDH1-null cells survive relatively better than parental; CDH1-null viability vs mock: higher = more viable CDH1-null cells; parental viability vs mock: higher = more viable parental cells
Here is an unselected part of about 18,000 reagents. Reagent sequences are not shown. Not given: the amount of reagent, the time to read-out.

| gene knocked down | CDH1-null / parental viability ratio | CDH1-null viability vs mock (fraction of mock) | parental viability vs mock (fraction of mock) |
| --- | --- | --- | --- |
| IL1B | 0.85 | 0.64 | 0.75 |
| PSMB7 | 1.44 | 0.52 | 0.36 |
| CD14 | 1 | 0.8 | 0.8 |
| FRZB | 1 | 0.9 | 0.9 |
| ABCA7 | 1.14 | 1.12 | 0.98 |
| TRADD | 1.43 | 1 | 0.7 |
| LCMT2 | 1.21 | 1.1 | 0.91 |
| KIR3DS1 | 1.15 | 0.78 | 0.68 |
| MEX3A | 0.98 | 0.98 | 1 |
| IFNA16 | 1.43 | 0.8 | 0.56 |
| SNCAIP | 0.65 | 0.54 | 0.83 |
| LY96 | 1.09 | 0.86 | 0.79 |
| ASB17 | 0.99 | 0.83 | 0.84 |
| GCC2 | 1.24 | 0.89 | 0.72 |
| FAM151A | 0.87 | 0.66 | 0.76 |
| PTDSS1 | 0.89 | 0.86 | 0.97 |
| CREBRF | 0.74 | 0.46 | 0.62 |
| LILRB4 | 0.98 | 0.9 | 0.92 |
| MTHFD2L | 0.83 | 0.96 | 1.15 |
| FKBP1B | 0.97 | 0.94 | 0.97 |
| SUSD6 | 0.76 | 0.58 | 0.76 |
| SPINT4 | 0.93 | 0.68 | 0.73 |
| LTB4R2 | 0.89 | 0.68 | 0.76 |
| TFF3 | 1.05 | 1.07 | 1.02 |
| GMFB | 1.28 | 1.15 | 0.9 |
| ZNF596 | 0.85 | 0.7 | 0.82 |
| FCGR2C | 1.07 | 0.91 | 0.85 |
| H2BC17 | 0.9 | 0.65 | 0.72 |
| CDC14B | 1.69 | 0.81 | 0.48 |
| CDRT15 | 0.79 | 0.54 | 0.68 |
| LPCAT1 | 0.95 | 0.8 | 0.84 |
| SDC3 | 0.84 | 0.8 | 0.95 |

Laid out differently: results already given.
CDRT15
- CDH1-null / parental viability ratio: 0.79
- CDH1-null viability vs mock (fraction of mock): 0.54
- parental viability vs mock (fraction of mock): 0.68

LPCAT1
- CDH1-null / parental viability ratio: 0.95
- CDH1-null viability vs mock (fraction of mock): 0.8
- parental viability vs mock (fraction of mock): 0.84

SDC3
- CDH1-null / parental viability ratio: 0.84
- CDH1-null viability vs mock (fraction of mock): 0.8
- parental viability vs mock (fraction of mock): 0.95

Additional results:
| gene knocked down | CDH1-null / parental viability ratio | CDH1-null viability vs mock (fraction of mock) | parental viability vs mock (fraction of mock) |
| --- | --- | --- | --- |
| ZNF396 | 1.12 | 0.91 | 0.81 |
| GEMIN4 | 1.07 | 0.49 | 0.46 |
| USP53 | 1.11 | 1 | 0.9 |
| FUBP3 | 1.25 | 1.05 | 0.84 |
| APOC3 | 0.9 | 0.88 | 0.98 |
| ZC3HAV1L | 0.89 | 0.84 | 0.94 |
| ALDH16A1 | 1.23 | 0.79 | 0.64 |
| CCDC159 | 1.18 | 0.9 | 0.76 |
| MYPN | 1.45 | 1.16 | 0.8 |
| C10orf88 | 0.82 | 0.56 | 0.68 |
| TMEM88 | 0.74 | 0.67 | 0.9 |
| PRTN3 | 0.9 | 0.45 | 0.5 |
| GABARAPL2 | 1.09 | 0.84 | 0.77 |
| CDIN1 | 1.44 | 0.52 | 0.36 |
| ZNF417 | 0.98 | 0.88 | 0.9 |
| SLC4A9 | 0.93 | 0.84 | 0.9 |
| PRPF6 | 1.45 | 0.29 | 0.2 |
| PRAME | 0.86 | 0.76 | 0.88 |
| DTD2 | 1.03 | 0.91 | 0.88 |
| KCNG4 | 1.13 | 0.97 | 0.86 |
| ABHD2 | 1.07 | 0.91 | 0.85 |
| ANKRD37 | 0.86 | 0.65 | 0.76 |
| RPL3L | 0.65 | 0.31 | 0.48 |
| SLPI | 0.91 | 0.68 | 0.75 |
| TMEM179 | 1.17 | 0.89 | 0.76 |
| MAGED1 | 0.82 | 0.67 | 0.82 |
| ATP1B3 | 0.88 | 0.6 | 0.68 |
| DAZAP2 | 1.11 | 0.98 | 0.88 |
| ORC3 | 1.02 | 0.84 | 0.82 |
| TTBK1 | 1.55 | 1.02 | 0.66 |
| MUSTN1 | 1.57 | 0.47 | 0.3 |
| HSPB1 | 1.02 | 0.51 | 0.5 |
| ZNF709 | 0.95 | 0.84 | 0.88 |
| FAM181B | 0.99 | 0.85 | 0.86 |
| PPT2 | 1.12 | 1.02 | 0.91 |
| ARRDC1-AS1 | 0.76 | 0.75 | 0.99 |
